Source: PubChem BioAssay AID2685 (National Center for Advancing Translational Sciences (NCATS), 2010)
This is one part of the list. The main result of the screen is listed elsewhere. These columns were measured beside it and carry no call. The list favours compounds with an active or inconclusive main result. Words in brackets tell the shape of the fitted curve; partial curves, single points and poor fits give uncertain potencies.

Assay: qHTS Assay for Lipid Storage Modulators in Drosophila S3 Cells;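 as to cell number change: cells counted by Cell Tracker Red CMTPX staining in the red channel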
Conditions: BODIPY lipid droplet fluorescence, 18-24 h; for cell number change: measured here: cell count max response, cells fed with added oleic acid
Method in brief: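 Drosophila S3 cells loaded with oleic acid (400 uM, as added) and compounds at several concentrations; lipid droplets imaged by 488-nm laser-scanning cytometry, 500–530 nm intensity and object ratio to cell channel. Percent activity normalized to 20 uM Triacsin C.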

[1] = measured here: cell number channel AC50, cells fed with added oleic acid
[2] = measured here: lipid fluorescence (Fed channel) AC50, cells fed with added oleic acid

SMILES	cell number change [%]	AC50 [1]	AC50 [2]
O=C(COC(=O)c1ccc(Br)o1)NC1CCCc2ccccc21 (stereo unspecified)	-2	0.164 µM [falling, full curve, poor fit]	29.1 µM [falling, single point]
COc1cc(OC)c(C(=O)NCC(c2cccs2)N(C)C)cc1OC (stereo unspecified)			6.51 µM [rising, single point]
CN1CCN(NC(=O)NC2CCCCC2)CC1	18.3	2.06 µM [rising, partial curve, poor fit]	
Cc1cc(/C=N/NC(=O)c2cc3ccccc3o2)c(C)n1C	19.7		0.103 µM [rising, partial curve, poor fit]
COCCCNC(=S)NCCc1ccc(F)cc1	-42.1	0.92 µM [falling, full curve]	16.4 µM [falling, partial curve, poor fit]
Cc1ccc(C(=O)Nn2c(N)c(S(=O)(=O)c3ccc(C)cc3)c3nc4ccccc4nc32)cc1			0.58 µM [rising, single point]
CS(=O)(=O)NCc1ccccc1Br	6.02		29.1 µM [rising, single point]
O=[N+]([O-])c1cccc(C(=S)N2CCN(c3ccccc3F)CC2)c1	19	0.206 µM [rising, full curve, poor fit]	1.46 µM [rising, full curve]
CCOc1ccc(N2C(=O)CN(O)C=C3N=c4ccccc4=C32)cc1	-26.2		14.6 µM [falling, single point]
CC(=O)c1cccc(NC(=O)CNC(=O)c2sc3ccccc3c2Cl)c1	11.2		0.092 µM [rising, full curve, poor fit]
Cc1csc(NC(=O)C2CCCN(S(=O)(=O)c3cccnc3)C2)n1 (stereo unspecified)	5.42		
COc1cc(NC(=O)CNc2cccc(S(=O)(=O)N3CCOCC3)c2)cc(OC)c1	5.99		20.6 µM [rising, single point]
O=C(Nc1nnc(C(F)(F)F)s1)C1COc2ccccc2O1 (stereo unspecified)	20.6		20.6 µM [falling, single point]
Cc1ccc(OCc2n[nH]c(=S)n2C2CCCCC2)cc1	-40.9	29.1 µM [falling, single point]	
Cn1c(SCC(=O)c2ccc3c(c2)Cc2ccccc2-3)nnc1-c1cccc(N)c1	1.65	1.03 µM [rising, full curve, poor fit]	
CCN(CC(=O)Nc1cc(OC)ccc1OC)Cc1nc2ccccc2c(=O)[nH]1	30.3		
OCCN(CCO)CC(O)CN1c2ccccc2Sc2ccccc21 (stereo unspecified)	22.2		14.6 µM [falling, partial curve]
O=C(COC(=O)CCC1CCCC1)Nc1ccc(F)cc1Cl	-29.6	0.92 µM [falling, full curve]	0.92 µM [falling, full curve]
CCOc1ccc(CNn2cnnc2)cc1	24.6		5.17 µM [rising, single point]
CN(CC(O)CON=C1c2ccccc2-c2ccccc21)S(=O)(=O)c1ccc(Br)cc1 (stereo unspecified)	-28.1		1.46 µM [falling, partial curve]

SMILES	cell number change [%]	AC50 [1]	AC50 [2]
O=[N+]([O-])c1ccc(Nc2c3ccccc3nc3ccccc23)cc1	-5.57		
COc1ccc(OC)c(N/C(C)=C/C(=O)c2ccccc2)c1	-33.3		0.13 µM [falling, partial curve, poor fit]
O=C1c2ccccc2C(=O)N1CC1c2ccccc2CCN1C(=O)N1CCOCC1 (stereo unspecified)	0.214		6.51 µM [falling, single point]
O=S(=O)(c1ccccc1)c1nc(-c2ccco2)oc1NCc1ccco1	120	8.2 µM [rising, partial curve]	9.2 µM [rising, partial curve]
O=C(NN1C(=O)C2C3CCC(O3)C2C1=O)c1ccco1 (stereo unspecified)	22.7		0.164 µM [falling, full curve, poor fit]
Nn1cnnc1N/N=C/c1cc([N+](=O)[O-])c(Cl)cc1Cl	-19.5	3.66 µM [rising, partial curve]	29.1 µM [rising, single point]
NS(=O)(=O)c1cccc(NC(=O)c2ccccc2NS(=O)(=O)c2ccc(F)cc2)c1	7.39		
Cc1ccc(NC(=O)CN(C)C(=O)Cn2cc(C(F)(F)F)cc(Cl)c2=O)cc1	7.95		0.146 µM [falling, full curve, poor fit]
COC(=O)CCN1CCN(S(=O)(=O)c2ccccc2Br)CC1	-8.17		
Cc1cccc(C2C3=C(CCCC3=O)N=C3c4ccccc4C(=O)C32)c1 (stereo unspecified)	1.49		0.651 µM [rising, single point]
CC(C)(CC(=O)O)CC(=O)N1CCN(c2cc(C(F)(F)F)nc3ccccc23)CC1	-33.9	6.51 µM [falling, partial curve]	7.31 µM [falling, partial curve]
O=C(O)c1ccc(S(=O)(=O)Nc2ccc(F)c(Cl)c2)cc1	-11.7		7.31 µM [falling, single point]
O=C(c1ccc([N+](=O)[O-])cc1)N1C=CC(C(F)(F)F)=NCC1	-39.7	32.6 µM [falling, single point]	29.1 µM [falling, single point]
COc1ccc(-n2nnnc2Sc2ccc(S(=O)(=O)N3CCOCC3)cn2)cc1	9.87		0.00461 µM [rising, full curve, poor fit]
CCOC(=O)COc1nc(-c2ccco2)cc(-c2ccco2)c1C#N	16.6	0.0651 µM [rising, full curve, poor fit]	
CCOC(=O)c1nc2nc(-c3cccs3)cc(C(F)(F)F)n2n1	35.8	10.3 µM [rising, partial curve]	0.366 µM [rising, full curve, poor fit]
Cc1nc(Nc2ccc(S(N)(=O)=O)cc2)sc1-c1ccccc1	10.5		
CCCc1nc(SCc2ccc(Cl)cc2Cl)n[nH]1	-22.6		
N=C1C=CC=C2C1=NC1(CCCCC1)N2O	-0.683		
CC(Cl)C(=O)NN=C(c1ccccc1)c1ccccc1 (stereo unspecified)	39.2	29.1 µM [rising, single point]	32.6 µM [rising, single point]

Entries of single compounds as entered above. Values in the order: cell number change [%] | AC50 [1] | AC50 [2]
COCCCNC(=S)NCCc1ccc(F)cc1 is entered as -42.1 | 0.92 µM [falling, full curve] | 16.4 µM [falling, partial curve, poor fit]
Nn1cnnc1N/N=C/c1cc([N+](=O)[O-])c(Cl)cc1Cl is entered as -19.5 | 3.66 µM [rising, partial curve] | 29.1 µM [rising, single point]

Next results follow:

SMILES	cell number change [%]	AC50 [1]	AC50 [2]
COc1ccccc1CNC(=O)COC(=O)C1CCN(S(=O)(=O)c2ccccc2)CC1	-20.2		0.231 µM [falling, full curve, poor fit]
COc1ccc(NC(=O)c2sc(Cl)nc2-c2ccccc2)cc1	-61.3	29.1 µM [falling, single point]	29.1 µM [falling, single point]
Cc1cc(C)c(S(=O)(=O)N2CCCC(C(=O)NCc3ccncc3)C2)c(C)c1 (stereo unspecified)	19.7	0.058 µM [rising, full curve, poor fit]	
CC(C)(C)OC(=O)CNC(=O)c1nc[nH]c1C(=O)NCC(=O)OC(C)(C)C			6.51 µM [rising, single point]
CC(C)(C)N/N=C/c1c(O)n(-c2ccc(Cl)cn2)c(=O)c2ccccc12	13.8		29.1 µM [rising, single point]
CC[n+]1c(/C=C/N(C)c2ccccc2)oc2ccccc21	-31.6	10.3 µM [falling, single point]	
Cc1cc(C)n(Cc2ccc(NC(=O)c3ccc(COc4ccccc4Br)cc3)cc2)n1	63.5	23.1 µM [rising, partial curve]	29.1 µM [falling, single point]
Cc1cc(N2CCOCC2)nc(NCc2ccccc2)n1	-32.1	0.82 µM [falling, full curve, poor fit]	1.03 µM [falling, full curve]
Cc1cc(OCCOCCN(C)C)ccc1Cl	-17.4		0.366 µM [falling, full curve, poor fit]
Cc1cc2nc(NC3=NCN(Cc4ccc5c(c4)OCO5)CN3)nc(C)c2cc1C	15.1		4.11 µM [rising, single point]
COc1ccc(C(CNC(=O)C(C)(C)Oc2ccc(Cl)cc2)N2CCCCC2)cc1 (stereo unspecified)	52.2	29.1 µM [rising, single point]	29.1 µM [rising, single point]
COc1ccc(C(=O)N2CCN(CCNC(=O)C(=O)Nc3ccc(F)cc3)CC2)cc1OC	-7.14		0.58 µM [rising, single point]
COc1ccc(CCNC(=O)CCCCC(=O)NCCc2ccc(OC)cc2)cc1	17.3		29.1 µM [rising, single point]
O=C(NC1CCCc2ccccc21)c1cccc(Br)c1 (stereo unspecified)	15.3		7.31 µM [rising, partial curve]
CCOC(=O)CNC(=O)CSc1ccc(-c2nc3ccccc3[nH]2)cn1	-1.4		
CN(C)c1ccc(P(=O)(OC2CCCCC2)C(Nc2ccccc2)c2cccnc2)cc1 (stereo unspecified)	27.6	0.92 µM [rising, full curve, poor fit]	0.517 µM [rising, full curve]
Cc1ccc(S(=O)(=O)N2CCC(C(=O)OCC(=O)N(C)c3ccccc3)CC2)cc1C	-0.641		25.9 µM [rising, partial curve]
C=CCn1c(C)cc(C(=O)Cn2nc(C(=O)O)c3ccccc3c2=O)c1C	-30.8	0.092 µM [falling, full curve]	
O=C1/C(=C\c2ccncc2)CCc2ccccc21	12.1		0.0651 µM [falling, full curve, poor fit]
